Data as given in the supplement of paper PMC12067093, “Discovery and optimisation of a covalent ligand for TRIM25 and its application to targeted protein ubiquitination” (Chemical Science, 2025).
Some of the results follow.

Chains of the proteins cited; added tags and fusions are not shown. Lines headed by an entry give the natural chain unless they say otherwise; changes in a name come on top.
UniProt O43175: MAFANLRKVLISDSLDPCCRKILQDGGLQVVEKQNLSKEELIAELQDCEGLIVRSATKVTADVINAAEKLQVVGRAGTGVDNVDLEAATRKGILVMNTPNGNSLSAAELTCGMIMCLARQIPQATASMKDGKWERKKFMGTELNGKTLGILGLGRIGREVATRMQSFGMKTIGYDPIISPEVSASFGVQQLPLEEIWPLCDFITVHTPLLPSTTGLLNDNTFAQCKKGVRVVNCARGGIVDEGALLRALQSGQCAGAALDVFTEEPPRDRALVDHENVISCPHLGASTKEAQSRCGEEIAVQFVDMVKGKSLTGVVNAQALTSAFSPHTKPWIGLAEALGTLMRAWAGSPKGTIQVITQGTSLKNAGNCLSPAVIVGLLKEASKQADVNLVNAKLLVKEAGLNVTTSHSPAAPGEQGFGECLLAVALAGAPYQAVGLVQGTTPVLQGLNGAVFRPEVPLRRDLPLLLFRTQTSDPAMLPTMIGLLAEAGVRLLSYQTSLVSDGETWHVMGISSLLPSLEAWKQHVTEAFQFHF
UniProt P00558: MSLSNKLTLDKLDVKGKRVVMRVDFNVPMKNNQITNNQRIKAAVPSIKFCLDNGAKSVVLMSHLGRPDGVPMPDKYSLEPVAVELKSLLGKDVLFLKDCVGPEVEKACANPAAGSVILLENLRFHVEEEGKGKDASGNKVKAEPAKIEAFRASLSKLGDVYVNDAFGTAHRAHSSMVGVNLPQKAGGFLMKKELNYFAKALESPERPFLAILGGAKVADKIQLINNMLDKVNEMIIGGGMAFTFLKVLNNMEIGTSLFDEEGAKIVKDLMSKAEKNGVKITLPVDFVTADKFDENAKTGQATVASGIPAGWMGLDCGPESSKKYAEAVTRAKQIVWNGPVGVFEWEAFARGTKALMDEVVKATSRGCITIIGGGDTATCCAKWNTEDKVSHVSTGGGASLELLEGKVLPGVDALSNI
UniProt Q01813: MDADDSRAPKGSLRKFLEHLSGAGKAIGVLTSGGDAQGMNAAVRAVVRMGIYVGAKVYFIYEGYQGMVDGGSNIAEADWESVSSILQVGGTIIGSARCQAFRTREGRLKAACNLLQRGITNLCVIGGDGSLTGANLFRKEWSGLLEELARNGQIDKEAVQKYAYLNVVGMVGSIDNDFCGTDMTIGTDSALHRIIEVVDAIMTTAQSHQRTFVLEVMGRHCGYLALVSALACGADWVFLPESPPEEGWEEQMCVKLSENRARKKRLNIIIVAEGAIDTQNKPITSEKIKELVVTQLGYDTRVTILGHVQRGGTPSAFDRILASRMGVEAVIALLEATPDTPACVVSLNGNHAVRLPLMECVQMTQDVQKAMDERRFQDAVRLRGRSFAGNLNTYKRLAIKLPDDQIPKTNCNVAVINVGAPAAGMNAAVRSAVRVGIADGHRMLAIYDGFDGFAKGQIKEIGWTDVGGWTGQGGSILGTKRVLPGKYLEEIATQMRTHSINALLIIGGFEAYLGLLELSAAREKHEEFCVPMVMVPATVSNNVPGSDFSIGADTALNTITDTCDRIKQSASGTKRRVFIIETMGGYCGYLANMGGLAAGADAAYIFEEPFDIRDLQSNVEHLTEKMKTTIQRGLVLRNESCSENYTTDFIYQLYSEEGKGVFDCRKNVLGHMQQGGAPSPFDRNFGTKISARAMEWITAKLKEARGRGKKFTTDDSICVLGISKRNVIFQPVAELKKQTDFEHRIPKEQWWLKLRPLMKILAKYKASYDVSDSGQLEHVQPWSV
UniProt P15735: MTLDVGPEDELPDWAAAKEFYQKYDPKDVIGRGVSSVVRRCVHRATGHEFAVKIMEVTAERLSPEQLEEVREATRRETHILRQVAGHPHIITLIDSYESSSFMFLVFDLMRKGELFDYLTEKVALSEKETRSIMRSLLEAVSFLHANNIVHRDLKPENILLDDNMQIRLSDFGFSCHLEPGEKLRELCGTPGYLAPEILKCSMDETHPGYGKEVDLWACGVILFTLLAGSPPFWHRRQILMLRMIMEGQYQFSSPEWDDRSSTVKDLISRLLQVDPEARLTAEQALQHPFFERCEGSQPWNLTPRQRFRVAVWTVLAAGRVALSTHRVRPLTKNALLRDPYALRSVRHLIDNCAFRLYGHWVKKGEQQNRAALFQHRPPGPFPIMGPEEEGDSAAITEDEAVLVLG
UniProt A6NDG6: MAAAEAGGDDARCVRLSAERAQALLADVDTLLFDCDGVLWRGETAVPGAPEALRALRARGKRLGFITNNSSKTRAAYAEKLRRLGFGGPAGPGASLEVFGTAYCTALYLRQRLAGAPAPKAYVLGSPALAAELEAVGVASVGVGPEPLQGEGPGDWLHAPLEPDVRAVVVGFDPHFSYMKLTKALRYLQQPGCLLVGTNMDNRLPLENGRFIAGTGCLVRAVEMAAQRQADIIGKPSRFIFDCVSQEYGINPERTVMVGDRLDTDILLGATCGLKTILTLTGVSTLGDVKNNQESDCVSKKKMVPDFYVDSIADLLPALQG
UniProt O14832: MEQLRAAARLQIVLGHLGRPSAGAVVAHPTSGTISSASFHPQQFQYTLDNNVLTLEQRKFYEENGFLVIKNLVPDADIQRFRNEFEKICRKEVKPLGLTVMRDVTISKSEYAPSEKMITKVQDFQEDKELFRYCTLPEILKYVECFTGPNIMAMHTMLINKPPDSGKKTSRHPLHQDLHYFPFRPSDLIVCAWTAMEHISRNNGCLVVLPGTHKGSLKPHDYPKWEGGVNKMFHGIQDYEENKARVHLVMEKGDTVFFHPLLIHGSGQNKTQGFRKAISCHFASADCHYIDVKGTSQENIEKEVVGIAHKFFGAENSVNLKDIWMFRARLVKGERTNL
UniProt O15067: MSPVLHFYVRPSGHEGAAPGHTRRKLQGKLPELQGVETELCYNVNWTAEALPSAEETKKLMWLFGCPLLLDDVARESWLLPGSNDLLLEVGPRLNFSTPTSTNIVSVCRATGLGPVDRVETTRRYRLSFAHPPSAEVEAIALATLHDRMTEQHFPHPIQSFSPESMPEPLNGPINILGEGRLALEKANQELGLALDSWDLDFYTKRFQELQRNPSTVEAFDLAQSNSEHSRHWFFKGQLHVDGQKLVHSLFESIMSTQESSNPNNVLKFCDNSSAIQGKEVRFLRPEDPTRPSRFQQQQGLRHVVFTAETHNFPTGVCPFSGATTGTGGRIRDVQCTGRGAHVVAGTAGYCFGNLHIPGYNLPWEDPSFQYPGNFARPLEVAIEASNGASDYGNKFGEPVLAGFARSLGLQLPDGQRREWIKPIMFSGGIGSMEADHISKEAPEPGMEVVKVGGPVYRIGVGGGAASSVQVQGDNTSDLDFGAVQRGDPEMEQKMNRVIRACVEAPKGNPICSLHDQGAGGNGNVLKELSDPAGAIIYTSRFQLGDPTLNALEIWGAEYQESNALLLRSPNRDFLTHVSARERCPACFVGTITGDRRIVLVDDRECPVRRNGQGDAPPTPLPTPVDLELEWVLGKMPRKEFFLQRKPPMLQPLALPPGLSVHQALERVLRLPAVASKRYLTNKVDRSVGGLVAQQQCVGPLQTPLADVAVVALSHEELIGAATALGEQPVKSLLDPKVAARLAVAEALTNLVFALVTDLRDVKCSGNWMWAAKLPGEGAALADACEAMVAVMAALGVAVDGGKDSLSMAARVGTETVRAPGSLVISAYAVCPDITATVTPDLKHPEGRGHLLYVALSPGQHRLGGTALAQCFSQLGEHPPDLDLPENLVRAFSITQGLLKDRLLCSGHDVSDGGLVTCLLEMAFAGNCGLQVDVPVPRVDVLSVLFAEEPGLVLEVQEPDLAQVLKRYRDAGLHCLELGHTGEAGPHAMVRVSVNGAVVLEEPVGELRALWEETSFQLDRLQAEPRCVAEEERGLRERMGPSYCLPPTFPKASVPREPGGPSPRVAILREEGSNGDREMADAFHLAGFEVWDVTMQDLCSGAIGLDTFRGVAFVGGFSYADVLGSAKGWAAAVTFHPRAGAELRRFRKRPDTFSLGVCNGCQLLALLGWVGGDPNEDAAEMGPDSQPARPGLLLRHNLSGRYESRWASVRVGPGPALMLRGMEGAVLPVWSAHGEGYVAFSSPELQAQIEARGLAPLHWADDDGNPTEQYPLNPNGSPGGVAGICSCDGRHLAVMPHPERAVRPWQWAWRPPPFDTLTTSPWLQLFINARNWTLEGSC
UniProt P17858: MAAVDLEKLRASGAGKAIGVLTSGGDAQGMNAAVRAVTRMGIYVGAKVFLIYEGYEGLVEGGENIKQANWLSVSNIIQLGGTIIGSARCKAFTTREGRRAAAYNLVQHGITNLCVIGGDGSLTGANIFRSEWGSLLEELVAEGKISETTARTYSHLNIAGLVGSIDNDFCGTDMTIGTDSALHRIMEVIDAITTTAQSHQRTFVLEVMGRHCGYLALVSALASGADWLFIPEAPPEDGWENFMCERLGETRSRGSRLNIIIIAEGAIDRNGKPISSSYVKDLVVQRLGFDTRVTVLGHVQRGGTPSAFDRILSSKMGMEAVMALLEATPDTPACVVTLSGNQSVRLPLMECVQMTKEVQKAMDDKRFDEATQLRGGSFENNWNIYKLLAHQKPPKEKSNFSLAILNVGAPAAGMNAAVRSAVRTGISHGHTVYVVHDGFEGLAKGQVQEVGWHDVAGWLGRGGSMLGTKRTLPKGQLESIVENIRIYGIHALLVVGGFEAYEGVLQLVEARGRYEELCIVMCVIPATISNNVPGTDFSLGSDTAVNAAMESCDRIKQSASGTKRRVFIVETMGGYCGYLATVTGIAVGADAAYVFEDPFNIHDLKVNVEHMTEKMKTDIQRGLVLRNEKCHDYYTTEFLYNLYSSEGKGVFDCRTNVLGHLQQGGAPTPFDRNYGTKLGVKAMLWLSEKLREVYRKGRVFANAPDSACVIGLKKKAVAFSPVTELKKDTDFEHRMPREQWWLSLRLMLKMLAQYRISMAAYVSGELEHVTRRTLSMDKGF
UniProt O00541, whole entry, looked up: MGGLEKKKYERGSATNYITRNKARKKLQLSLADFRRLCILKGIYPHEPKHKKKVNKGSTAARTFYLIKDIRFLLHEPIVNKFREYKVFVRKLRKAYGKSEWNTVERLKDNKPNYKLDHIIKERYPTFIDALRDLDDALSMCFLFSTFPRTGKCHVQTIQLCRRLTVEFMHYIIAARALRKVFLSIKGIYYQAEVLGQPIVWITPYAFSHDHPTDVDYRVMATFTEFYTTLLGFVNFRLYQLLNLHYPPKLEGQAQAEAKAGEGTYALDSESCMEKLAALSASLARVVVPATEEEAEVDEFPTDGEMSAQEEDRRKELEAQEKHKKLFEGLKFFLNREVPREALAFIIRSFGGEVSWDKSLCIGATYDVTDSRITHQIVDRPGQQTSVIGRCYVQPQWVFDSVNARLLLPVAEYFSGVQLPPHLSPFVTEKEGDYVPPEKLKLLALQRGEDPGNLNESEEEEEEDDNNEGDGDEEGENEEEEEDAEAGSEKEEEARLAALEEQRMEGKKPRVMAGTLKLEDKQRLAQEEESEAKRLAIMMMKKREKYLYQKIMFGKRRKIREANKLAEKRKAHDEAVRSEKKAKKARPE
UniProt P36871: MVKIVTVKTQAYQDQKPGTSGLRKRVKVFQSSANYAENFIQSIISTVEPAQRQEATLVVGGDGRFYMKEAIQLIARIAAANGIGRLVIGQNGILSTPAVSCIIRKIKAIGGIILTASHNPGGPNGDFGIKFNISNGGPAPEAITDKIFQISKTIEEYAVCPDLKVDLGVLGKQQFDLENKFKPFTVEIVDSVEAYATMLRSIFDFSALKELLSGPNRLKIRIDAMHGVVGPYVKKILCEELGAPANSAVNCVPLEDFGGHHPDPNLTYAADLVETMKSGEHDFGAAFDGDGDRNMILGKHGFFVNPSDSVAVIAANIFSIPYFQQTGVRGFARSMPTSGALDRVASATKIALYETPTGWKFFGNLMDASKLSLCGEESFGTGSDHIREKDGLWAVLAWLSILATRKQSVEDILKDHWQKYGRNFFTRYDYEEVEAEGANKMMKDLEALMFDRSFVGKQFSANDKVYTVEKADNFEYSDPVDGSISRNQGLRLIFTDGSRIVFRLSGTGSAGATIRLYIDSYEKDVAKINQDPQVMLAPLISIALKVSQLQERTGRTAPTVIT
UniProt Q9BTU6: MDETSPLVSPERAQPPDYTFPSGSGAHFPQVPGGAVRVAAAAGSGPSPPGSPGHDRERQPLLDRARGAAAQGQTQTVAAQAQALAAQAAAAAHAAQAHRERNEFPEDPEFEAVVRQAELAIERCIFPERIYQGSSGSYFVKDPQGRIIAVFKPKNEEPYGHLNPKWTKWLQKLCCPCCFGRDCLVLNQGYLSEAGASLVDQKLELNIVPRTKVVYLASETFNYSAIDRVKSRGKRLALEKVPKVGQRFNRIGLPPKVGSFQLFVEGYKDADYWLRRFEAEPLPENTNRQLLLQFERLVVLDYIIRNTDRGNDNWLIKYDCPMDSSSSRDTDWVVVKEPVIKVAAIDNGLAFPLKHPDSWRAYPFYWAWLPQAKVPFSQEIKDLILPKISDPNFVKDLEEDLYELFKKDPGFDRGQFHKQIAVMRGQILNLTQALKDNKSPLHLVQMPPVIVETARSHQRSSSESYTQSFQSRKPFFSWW

Compound: CC1Cc2ccccc2N1C(=O)C1CCCN(C1)C(=O)CCl (mixture of isomers) [TRIM25 ligand 11 (diastereomer mixture)]
Assay: probe-labelled cysteine peptide fold change vs DMSO (competition) (log2 fold change); higher = less target engagement (more negative = stronger competition)
Conditions: THP-1, incubation time: 4 h
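Also: competitive chemoproteomic profiling in live THP-1 cells with an iodoacetamide desthiobiotin (IA-DTB) probe, comparing probe-labelled peptide intensities in compound-treated cells against DMSO-treated controls.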

PHACTR3_Q96KR7_126_TCNPDGGPR (UniProt Q96KR7)
probe-labelled cysteine peptide fold change (10 µM): -0.113 | probe-labelled cysteine peptide fold change (50 µM): -0.058

PHGDH_O43175_116_GILVMNTPNGNSLSAAELTCGMIMCLAR (UniProt O43175)
probe-labelled cysteine peptide fold change (10 µM): -0.136 | probe-labelled cysteine peptide fold change (50 µM): 0.0662

PGLS_O95336_78_WTLGFCDER (UniProt O95336)
probe-labelled cysteine peptide fold change (10 µM): -0.0642 | probe-labelled cysteine peptide fold change (50 µM): 0.0564

PECAM1_P16284_572_EQEGEYYCTAFNR (UniProt P16284)
probe-labelled cysteine peptide fold change (10 µM): -0.0892 | probe-labelled cysteine peptide fold change (50 µM): -0.146

PHIP_Q8WWQ0_1382_ETLEAGNYESPMELCK (UniProt Q8WWQ0)
probe-labelled cysteine peptide fold change (10 µM): 0.0362 | probe-labelled cysteine peptide fold change (50 µM): -0.236

PGK1_P00558_50_FCLDNGAK (UniProt P00558)
probe-labelled cysteine peptide fold change (10 µM): 0.0216 | probe-labelled cysteine peptide fold change (50 µM): 0.0371

PGM2_Q96G03_484_ASYFICHDQETIKK (UniProt Q96G03)
probe-labelled cysteine peptide fold change (10 µM): 0.258 | probe-labelled cysteine peptide fold change (50 µM): 0.237

PFKP_Q01813_641_NESCSENYTTDFIYQLYSEEGK (UniProt Q01813)
probe-labelled cysteine peptide fold change (10 µM): 0.104 | probe-labelled cysteine peptide fold change (50 µM): -0.0845

PHKG2_P15735_353_HLIDNCAFR (UniProt P15735)
probe-labelled cysteine peptide fold change (10 µM): -0.0131 | probe-labelled cysteine peptide fold change (50 µM): -0.00983

PGP_A6NDG6_217_FIAGTGCLVR (UniProt A6NDG6)
probe-labelled cysteine peptide fold change (10 µM): 0.0536 | probe-labelled cysteine peptide fold change (50 µM): -0.00184

PFKP_Q01813_411_TNCNVAVINVGAPAAGMNAAVR (UniProt Q01813)
probe-labelled cysteine peptide fold change (10 µM): -0.0311 | probe-labelled cysteine peptide fold change (50 µM): 0.0468

PHYH_O14832_205_NNGCLVVLPGTHK (UniProt O14832)
probe-labelled cysteine peptide fold change (10 µM): -0.0217 | probe-labelled cysteine peptide fold change (50 µM): 0.22

PGM2L1_Q6PCE3_303_CPNPEEGESVLELSLR (UniProt Q6PCE3)
probe-labelled cysteine peptide fold change (10 µM): 0.0542 | probe-labelled cysteine peptide fold change (50 µM): -0.119

PGP_A6NDG6_193_YLQQPGCLLVGTNMDNRLPLENGR (UniProt A6NDG6)
probe-labelled cysteine peptide fold change (10 µM): -0.361 | probe-labelled cysteine peptide fold change (50 µM): -0.113

PFAS_O15067_871_LGGTALAQCFSQLGEHPPDLDLPENLVR (UniProt O15067)
probe-labelled cysteine peptide fold change (10 µM): 0.0579 | probe-labelled cysteine peptide fold change (50 µM): -0.152

PGAM5_Q96HS1_168_HLPGVCK (UniProt Q96HS1)
probe-labelled cysteine peptide fold change (10 µM): -0.0611 | probe-labelled cysteine peptide fold change (50 µM): -0.0945

PHGDH_O43175_369_NAGNCLSPAVIVGLLK (UniProt O43175)
probe-labelled cysteine peptide fold change (10 µM): -0.153 | probe-labelled cysteine peptide fold change (50 µM): -0.228

PGK1_P00558_367+379+380_GCITIIGGGDTATCCAK (UniProt P00558)
probe-labelled cysteine peptide fold change (10 µM): 0.0728 | probe-labelled cysteine peptide fold change (50 µM): 0.208

PFKL_P17858_351_LPLMECVQMTK (UniProt P17858)
probe-labelled cysteine peptide fold change (10 µM): -0.0342 | probe-labelled cysteine peptide fold change (50 µM): -0.0606

PES1_O00541_361_SLCIGATYDVTDSR (UniProt O00541)
probe-labelled cysteine peptide fold change (10 µM): -0.00464 | probe-labelled cysteine peptide fold change (50 µM): 0.0571

PHGDH_O43175_111+116_KGILVMNTPNGNSLSAAELTCGMIMCLAR (UniProt O43175)
probe-labelled cysteine peptide fold change (10 µM): -0.19 | probe-labelled cysteine peptide fold change (50 µM): 0.131

PHGDH_O43175_295_CGEEIAVQFVDMVK (UniProt O43175)
probe-labelled cysteine peptide fold change (10 µM): -0.0517 | probe-labelled cysteine peptide fold change (50 µM): -0.147

PELP1_Q8IZL8_522_KGDSNANSDVCAAALR (UniProt Q8IZL8)
probe-labelled cysteine peptide fold change (10 µM): -0.159 | probe-labelled cysteine peptide fold change (50 µM): -0.0633

PGM1_P36871_160_TIEEYAVCPDLK (UniProt P36871)
probe-labelled cysteine peptide fold change (10 µM): 0.0318 | probe-labelled cysteine peptide fold change (50 µM): -0.0781

PI4K2A_Q9BTU6_320_YDCPMDSSSSR (UniProt Q9BTU6)
probe-labelled cysteine peptide fold change (10 µM): 0.0136 | probe-labelled cysteine peptide fold change (50 µM): -0.0674

PFAS_O15067_66_KLMWLFGCPLLLDDVAR (UniProt O15067)
probe-labelled cysteine peptide fold change (10 µM): -0.467 | probe-labelled cysteine peptide fold change (50 µM): -0.158

PIAS4_Q8N2W9_390+405_ILSECEDADEIEYLVDGSWCPIR (UniProt Q8N2W9)
probe-labelled cysteine peptide fold change (10 µM): -0.36 | probe-labelled cysteine peptide fold change (50 µM): -0.0105

PHYKPL_Q8IUZ5_288_SIGNGHPVACVAATQPVAR (UniProt Q8IUZ5)
probe-labelled cysteine peptide fold change (10 µM): 0.23 | probe-labelled cysteine peptide fold change (50 µM): 0.0458

PGK1_P00558_316_TGQATVASGIPAGWMGLDCGPESSKK (UniProt P00558)
probe-labelled cysteine peptide fold change (10 µM): -0.0449 | probe-labelled cysteine peptide fold change (50 µM): -0.138

PHGDH_O43175_48_QNLSKEELIAELQDCEGLIVR (UniProt O43175)
probe-labelled cysteine peptide fold change (10 µM): -0.367 | probe-labelled cysteine peptide fold change (50 µM): -0.214

PEX1_O43933_1185_TASQEGCQELTQEQR (UniProt O43933)
probe-labelled cysteine peptide fold change (10 µM): 0.0313 | probe-labelled cysteine peptide fold change (50 µM): -0.227

PHGDH_O43175_19_VLISDSLDPCCR (UniProt O43175)
probe-labelled cysteine peptide fold change (10 µM): 0.0299 | probe-labelled cysteine peptide fold change (50 µM): 0.00413

PHF3_Q92576_885_ESTTVTCTGEK (UniProt Q92576)
probe-labelled cysteine peptide fold change (10 µM): 0.0091 | probe-labelled cysteine peptide fold change (50 µM): -0.288

PHF6_Q8IWS0_305_TYHYHCGVQDK (UniProt Q8IWS0)
probe-labelled cysteine peptide fold change (10 µM): -0.0372 | probe-labelled cysteine peptide fold change (50 µM): 0.0401

PFAS_O15067_975_DAGLHCLELGHTGEAGPHAMVR (UniProt O15067)
probe-labelled cysteine peptide fold change (10 µM): -0.0892 | probe-labelled cysteine peptide fold change (50 µM): -0.162

PFAS_O15067_831_APGSLVISAYAVCPDITATVTPDLK (UniProt O15067)
probe-labelled cysteine peptide fold change (10 µM): -0.0525 | probe-labelled cysteine peptide fold change (50 µM): -0.267

PGAM1_P18669_153_RYADLTEDQLPSCESLK (UniProt P18669)
probe-labelled cysteine peptide fold change (10 µM): -0.176 | probe-labelled cysteine peptide fold change (50 µM): -0.215

PFKL_P17858_708_VFANAPDSACVIGLKK (UniProt P17858)
probe-labelled cysteine peptide fold change (10 µM): -0.225 | probe-labelled cysteine peptide fold change (50 µM): -0.0889
